{"source": "PubChem BioAssay AID1259308 (NCATS, 2017)", "purpose": "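Candidate targets for better recombinant protein yield in mammalian cells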 (primary screen)", "cells": "human HEK293 embryonic kidney cells stably expressing firefly luciferase (HEK-CMV-Luc2-Hygro)", "knock-down reagent": "single siRNA against human genes, 0.8 pmol siRNA per well", "duration": "72 h", "detection": "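Reporter luminescence and viable-cell signal on separate replicate plates, given as percent of non-targeting control and median/MAD z-scores, plus per-cell luciferase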", "direction": "total luciferase, z-score: higher = more reporter protein produced", "hit rule": "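Active when the median/MAD z-score for overall luciferase is greater than 3; a gene was taken forward for validation with new siRNAs if at least two of its three siRNAs passed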", "calls": "active = raised luciferase; inactive = no rise", "note": "Shown is one part, drawn at random, of about 59,000 deposited reagents. In the full data, about 1,510 (2.6%) are marked active. 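Calls use total luciferase alone and ignore viability, so some active siRNAs may act by altering cell number.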 Entries without a mark were called inactive. The numbers tell different reagents against one gene apart. Further read-outs or replicates are left out here."}
{"target gene":"FGF11","reagent no.":1,"total luciferase, z-score":0.174}
{"target gene":"FGF11","reagent no.":2,"total luciferase, z-score":0.133}
{"target gene":"FGF11","reagent no.":3,"total luciferase, z-score":-1.17}
{"target gene":"TSFM","reagent no.":1,"total luciferase, z-score":0.867}
{"target gene":"TSFM","reagent no.":2,"total luciferase, z-score":0.5}
{"target gene":"TSFM","reagent no.":3,"total luciferase, z-score":-0.611}
{"target gene":"LPA","reagent no.":1,"total luciferase, z-score":-0.578}
{"target gene":"LPA","reagent no.":2,"total luciferase, z-score":-0.502}
{"target gene":"LPA","reagent no.":3,"total luciferase, z-score":0.705}
{"target gene":"GRIP1","reagent no.":1,"total luciferase, z-score":2.35}
{"target gene":"GRIP1","reagent no.":2,"total luciferase, z-score":1.04}
{"target gene":"GRIP1","reagent no.":3,"total luciferase, z-score":-0.559}
{"target gene":"PABPC4","reagent no.":1,"total luciferase, z-score":-0.761}
{"target gene":"PABPC4","reagent no.":2,"total luciferase, z-score":-0.733}
{"target gene":"PABPC4","reagent no.":3,"total luciferase, z-score":-0.619}
{"target gene":"ZNF774","reagent no.":1,"total luciferase, z-score":0.524}
{"target gene":"ZNF774","reagent no.":2,"total luciferase, z-score":-0.31}
{"target gene":"ZNF774","reagent no.":3,"total luciferase, z-score":1.81}
{"target gene":"HPSE2","reagent no.":1,"total luciferase, z-score":0.328}
{"target gene":"HPSE2","reagent no.":2,"total luciferase, z-score":-0.561}
{"target gene":"HPSE2","reagent no.":3,"total luciferase, z-score":0.682}

5 entries already listed, ordered by “total luciferase, z-score”, high to low.
{"target gene":"GRIP1","reagent no.":2,"total luciferase, z-score":1.04}
{"target gene":"GRIP1","reagent no.":3,"total luciferase, z-score":-0.559}
{"target gene":"PABPC4","reagent no.":3,"total luciferase, z-score":-0.619}
{"target gene":"PABPC4","reagent no.":2,"total luciferase, z-score":-0.733}
{"target gene":"PABPC4","reagent no.":1,"total luciferase, z-score":-0.761}

The listing continues.
{"target gene":"ZC3H3","reagent no.":1,"total luciferase, z-score":-0.217}
{"target gene":"ZC3H3","reagent no.":2,"total luciferase, z-score":-0.107}
{"target gene":"ZC3H3","reagent no.":3,"total luciferase, z-score":0.382}
{"target gene":"OTOP2","reagent no.":1,"total luciferase, z-score":2.36}
{"target gene":"OTOP2","reagent no.":2,"total luciferase, z-score":1.3}
{"target gene":"OTOP2","reagent no.":3,"total luciferase, z-score":0.446}
{"target gene":"ANTKMT","reagent no.":1,"total luciferase, z-score":0.269}
{"target gene":"ANTKMT","reagent no.":2,"total luciferase, z-score":-1.71}
{"target gene":"ANTKMT","reagent no.":3,"total luciferase, z-score":1.19}
{"target gene":"ZNF726P1","reagent no.":1,"total luciferase, z-score":-0.491}
{"target gene":"ZNF726P1","reagent no.":2,"total luciferase, z-score":0.654}
{"target gene":"ZNF726P1","reagent no.":3,"total luciferase, z-score":-1.69}
